# Small-molecule microarray binding calls

Calls as published in the ROBIN set (doi:10.1002/anie.202211358).

Targets (5′ to 3′):
TPP: TPP riboswitch RNA three-way junction, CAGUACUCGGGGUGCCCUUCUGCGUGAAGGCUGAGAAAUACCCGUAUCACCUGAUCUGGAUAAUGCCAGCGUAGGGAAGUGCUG. About 160 hits among about 24,000 compounds.
SAM-II: SAM-II riboswitch RNA pseudoknot, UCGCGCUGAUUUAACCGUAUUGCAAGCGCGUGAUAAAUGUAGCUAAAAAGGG. About 200 hits among about 21,000 compounds.
PreQ1: PreQ1 riboswitch RNA pseudoknot, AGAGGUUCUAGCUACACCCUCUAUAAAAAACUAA. From B. subtilis. About 170 hits among about 24,000 compounds.

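The test is a small-molecule microarray: each compound is printed twice on a reactive slide, and binding shows as fluorescence of the labelled oligonucleotide after washing. The data file lists only calls. An earlier report of the laboratory on the PreQ1, TPP and SAM-II riboswitches (doi:10.1038/s41467-019-09493-3) used 1 µM RNA for 2 h and required a mean Z-score above 3 (spot signal-to-noise against the whole library), a score well above that on a control array, and duplicate spots agreeing (coefficient of variation under 100); it then also set aside compounds that hit other targets, which this list keeps. The cut-offs behind this list may differ. The calls come from the array alone, and fixing a compound to the slide can hide its binding.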 “hit” means called a hit, “no hit” means screened and not called a hit. Compounds were drawn at random from those tested, without regard to their results. A target missing from an entry has no call listed here.

For NC(c1ccccc1)c1cccnc1 (stereo not shown) the calls were TPP: no hit; SAM-II: no hit; PreQ1: no hit. With COc1cc2ncn(-c3cc(OCc4ccccc4S(C)(=O)=O)c(C#N)s3)c2cc1OC the screen gave TPP: no hit; SAM-II: no hit; PreQ1: no hit. For COCCC(=O)N1CCN(c2nccnc2C#N)CC(O)C1 (stereo not shown) the calls were TPP: no hit; SAM-II: no hit; PreQ1: no hit. Calls for O=C1CC(NCC2CCCO2)C(=O)N1c1ccc(Cl)cc1 (stereo not shown) are TPP: no hit; SAM-II: no hit; PreQ1: no hit.

COC(=O)c1ccccc1NCCO was scored TPP: no hit; SAM-II: no hit; PreQ1: no hit. For CC(O)CNS(=O)(=O)c1ccc(Br)c2ccccc12 (stereo not shown) the calls were TPP: no hit; SAM-II: no hit; PreQ1: no hit. For CC(C)c1ccc(CNc2ccc(N3CCOCC3)c(C(=O)O)c2)cc1 the calls were TPP: no hit; SAM-II: no hit; PreQ1: no hit. For COc1cccc(C2c3c(-c4ccccc4O)n[nH]c3C(=O)N2CCCO)c1 (stereo not shown) the calls were TPP: no hit; PreQ1: no hit.

With COC(=O)c1ccc(CO)nc1.Cl the screen gave TPP: no hit; SAM-II: no hit; PreQ1: no hit. Cc1ccc2c(c1)N(CCO)C(=Cc1ccc[n+](C)c1)S2 was scored TPP: no hit; SAM-II: no hit; PreQ1: no hit. For O=C(c1coc(CN2CCOCC2)c1)N1CCNC(c2ccccc2)C1 (stereo not shown) the calls were TPP: no hit; SAM-II: no hit; PreQ1: no hit. Calls for COc1cc(C)sc1C(=O)N1C[C@H]2CNC[C@H]2C1 are TPP: no hit; SAM-II: no hit; PreQ1: no hit.

Calls for OCCn1c(-c2ccccc2)cn2c(-c3ccccc3)c(-c3ccccc3)nc12 are TPP: no hit; SAM-II: no hit; PreQ1: no hit. With Cc1nc(C2CCCNC2)cc(N2CCc3nc(N)sc3C2)n1 (stereo not shown) the screen gave TPP: no hit; SAM-II: no hit; PreQ1: no hit. With Nc1ccc(-c2csc(N3CCOCC3)n2)cc1 the screen gave TPP: no hit; SAM-II: no hit; PreQ1: no hit. With COc1ccc(CN2CCN(C(=O)CC3CNCCO3)CC2=O)cc1 (stereo not shown) the screen gave TPP: no hit; SAM-II: no hit; PreQ1: no hit.

With CCCNc1ncccc1-c1nc(-c2ccc(OC)cc2)no1 the screen gave TPP: no hit; PreQ1: no hit.

2 of the entries, repeated:

{"smiles": "COc1cc(C)sc1C(=O)N1C[C@H]2CNC[C@H]2C1", "TPP": "no hit", "SAM-II": "no hit", "PreQ1": "no hit"}
{"smiles": "Cc1ccc2c(c1)N(CCO)C(=Cc1ccc[n+](C)c1)S2", "TPP": "no hit", "SAM-II": "no hit", "PreQ1": "no hit"}